The subject of data set [1] is coronary insufficiency induced with glanduitrine in male rats (CFY strain). The data set can be described thus: Anti-anginose activity by the method of Nieschulz, coronary insufficiency induced with glanduitrine. Type of data set: in vivo. To be noted: inhibition caused by Prenilamine=1. As to the method: Anti-anginose activity of the compounds according to the invention was tested on male rats from the CFY strain by the method of Nieschulz (Nieschulz, E. et al., Arzneimittelforschung, 5, 680/1955/). The rats weighed about 180 to 220 g. each and were narcotized prior to treatment. Electrocardiograms were registered by means of a NEK-2 ECG-instrument using a standard II output. The coronary insufficiency was induced with a 4 IE/kg. i.v. dose of glanduitrine. Prenilamine was used as a reference compound.
(§1) The acute intravenous toxicity was determined on rats of both sexes, using five animals for each doses. The relative anti-anginose activity was calculated on the basis of the following equation: [formula] Test results are shown in Table 3 below (inhibition caused by Prenilamine=1).

Data set [2] in a line: in vivo. To be noted: rat, iv, rats, i.v., read-out: LD50-value (acute intravenous toxicity). On the procedure: as §1
The test system of data set [3] is N. ischiadicus of rats. The data set can be described thus: Local anaesthetic activity by the method of Truant and d'Amato. Format: in vivo. The conditions noted are these: related to Lidocaine (1.0). As to the method:
The local anaesthetic activity was tested by the method of Truant and d'Amato (Truant, A. P. and Wiedling, S., Acta Chirurg. Scand. 116, 351/1958) on the N. ischiadicus of rats. The number of the animals showing the signs of characteristic motor-paralysis was recorded. As a control compound Lidocaine was used. This test can be carried out with water-soluble substances only.

As usually defined, the LD50 is the dose at which mortality reaches 50%. For the compound `CCN(CC)CC(=O)Nc1c(C)cccc1C` [Lidocaine, reference compound], the “Relative efficiency (relative anti-anginose activity)” value in data set [1] amounted to 1.4. Besides, the LD50 in data set [2] turned out to be 34 mg/kg. Also, in data set [3], the “Local anaesthetic activity, relative efficiency” value is on record as 1.0.

For the origin of these results see patent publication US4259257A, “1-Phenyl-2-amino-1,3-propanediol-N-aryloxyalkyl derivatives” (Egyt Gyogyszervegyeszeti Gyar, priority 1977, dated 1981).
